Results deposited as PubChem BioAssay AID504774 (Drosophila RNAi Screening Center, 2011)

Assay: 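Fly genes whose loss alters survival after alkylation damage to DNA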 (primary screen)
Cells: Drosophila Kc167 cells
Knock-down reagent: long dsRNA against Drosophila genes, about 0.25 µg dsRNA per well
Timing: about 6 days: 3 days knock-down, then 3 days with or without MMS
Challenge: methyl methanesulphonate 0.004% (w/v) for 3 days after knock-down
Read-out: 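ATP-dependent luminescence as a measure of live cells in MMS-exposed wells, quantile normalised within each plate, with replicate values also given as a mean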
Direction: mean viability with MMS: higher = more surviving cells after MMS
The screen tested about 23,000 reagents; shown is a random part of those that have a named target and a result. 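Values are quantile-normalised luminescence on an arbitrary scale; higher means more cells surviving MMS.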 A plus sign joins genes that one reagent is predicted to hit. Further read-outs or replicates are left out here.

mean viability with MMS, by target gene and reagent
BomBc1 (GeneID 37099): DRSC06501 3.58e6
CG10674 (GeneID 38602): DRSC09775 3.86e6
CG33679 (GeneID 3772494): DRSC01436 3.55e6
CG15646 (GeneID 32501): DRSC19682 3.55e6
Nsf2 (GeneID 41694): DRSC22104 3.71e6
CG15107 (GeneID 59128): DRSC06534 3.46e6
Ilp4 (GeneID 39152): DRSC10701 3.71e6
Cpr67Fb (GeneID 39225): DRSC10314 3.70e6
CG34002 (GeneID 3885644): DRSC09512 3.70e6; DRSC11953 3.51e6
Mettl3 (GeneID 42844): DRSC15921 3.85e6
RpL26 (GeneID 40060): DRSC10726 2.83e6
CG13186 (GeneID 36294): DRSC06311 3.48e6
Vha100-4 (GeneID 42214): DRSC16282 3.45e6
Acf (GeneID 43751): DRSC14101 3.40e6
Cyp4p1 (GeneID 45524): DRSC07372 3.77e6
CG14054 (GeneID 31172): DRSC17909 3.52e6
Cks85A (GeneID 41034): DRSC16562 3.70e6
CG3552 (GeneID 39097): DRSC10370 3.60e6
CG42741 (GeneID 37654): DRSC04593 3.54e6; DRSC22045 3.62e6
CG33969 + fbl: DRSC11886 3.59e6
CR31292 (GeneID 10178952): DRSC13120 3.15e6
CngA (GeneID 36806): DRSC06580 3.36e6; DRSC07362 3.47e6
Osi21 (GeneID 34566): DRSC02408 3.43e6
ThrRS (GeneID 45784): DRSC02843 3.53e6
Scgdelta (GeneID 31129): DRSC18544 3.63e6

4 entries already listed, sorted by “mean viability with MMS”, lowest first.
target gene	amplicon	mean viability with MMS
RpL26 (GeneID 40060)	DRSC10726	2.83e6
Acf (GeneID 43751)	DRSC14101	3.40e6
Vha100-4 (GeneID 42214)	DRSC16282	3.45e6
CG13186 (GeneID 36294)	DRSC06311	3.48e6
